Where a name gives a salt, the structure may show the parent alone. ± gives the standard deviation of the averaged measurements. The list shows a part of the results. Many values rest on one well or one pass, so single values are uncertain.
Tested on: RAW 264.7
Assay: cell viability (MTT) relative to vehicle control; higher = more viable cells
Settings: stimulus: HMGB1 5 ug/ml, 18 h
[1] = compound concentration: 1 ug/ml

Row | SMILES | cell viability (compound concentration: 3 uM) | cell viability [1]
1 | CCCOc1ccc2[nH]c(NC(=O)OC)nc2c1 [Oxibendazol] | 76.3% | 
2 | CCCOc1ccc2[nH]c(NC(=O)OC)nc2c1 | 73.4% | 
3 | CCCOc1ccc2[nH]c(NC(=O)OC)nc2c1 [Oxibendazole] | 81.1% | 
4 | O=C(O)CCc1ccc(NCc2cccc(Oc3ccccc3)c2)cc1 | 105% | 
5 | Cc1[nH]cnc1CN1CCc2c(c3ccccc3n2C)C1=O | 99.2% | 
6 | O=C1NC(=O)c2cc(Nc3ccccc3)c(Nc3ccccc3)cc21 | 94.3% | 
7 | CCCCCC(=O)OC1(C(C)=O)CCC2C3CCC4=CC(=O)CCC4(C)C3CCC21C (centres undefined) [17a-Hydroxyprogesterone hexanoate] |  | 114%
8 | Clc1ccc2c(c1)CCc1cccnc1C2=C1CCNCC1 [Desloratadine] | 104 ± 6.7% | 
9 | Clc1ccc2c(c1)CCc1cccnc1C2=C1CCNCC1 | 97.5% | 
10 | O=C1NCC2(CCN(CCc3ccccc3)CC2)O1 | 111% | 
11 | O=C1NCC2(CCN(CCc3ccccc3)CC2)O1 [Fenspiride hydrochloride] | 105.89 ± 0.014% | 
12 | Cl.N[C@@H](CCC(=O)O)C(=O)O [L-Glutamic acid hydrochloride] | 107% | 
13 | CN(C)CCOC(c1ccccc1)c1ccccc1.Cn1c(=O)c2[nH]c(Cl)nc2n(C)c1=O [Dimenhydrinate] | 102% | 
14 | CN(C)CCOC(c1ccccc1)c1ccccc1.Cn1c(=O)c2[nH]c(Cl)nc2n(C)c1=O | 96% | 
15 | CN(CCCN1c2ccccc2CCc2ccccc21)CC(=O)c1ccc(Cl)cc1 | 100% | 
16 | CSC(=N)N [S-Methylisothiourea hemisulfate] | 102% | 
17 | C[C@@](Cc1ccc(O)c(O)c1)(NN)C(=O)O [Carbidopa] | 108 ± 3.5% | 
18 | C[C@@](Cc1ccc(O)c(O)c1)(NN)C(=O)O | 104% | 
19 | CCOc1nc2cccc(C(=O)O)c2n1Cc1ccc(-c2ccccc2-c2nnn[nH]2)cc1 [Candesartan] | 99.5 ± 15% | 
20 | NC[C@@H]1O[C@H](C23CC4CC(CC(C4)C2)C3)Cc2c1ccc(O)c2O | 106% | 
21 | CC[C@H](C)[C@H](N)C(=O)O [L-Isoleucine] |  | 89%
22 | Nc1ncnc2c1ncn2[C@@H]1O[C@H](CO)[C@@H](O)[C@@H]1O | 103% | 

Row | SMILES | cell viability (compound concentration: 3 uM) | cell viability [1]
23 | Nc1ncnc2c1ncn2[C@@H]1O[C@H](CO)[C@@H](O)[C@@H]1O [Vidarabine] | 114 ± 13% | 
24 | CC1CCN(CC[C@H]2CCCN2S(=O)(=O)c2cccc(O)c2)CC1 | 123% | 
25 | CCC1(c2ccccc2)C(=O)NCNC1=O | 107% | 
26 | CCC1(c2ccccc2)C(=O)NCNC1=O [Primidone] | 107 ± 1.5% | 
27 | N#Cc1ccc2c(c1)N(CCCN1CCC(O)CC1)c1ccccc1S2 | 108% | 
28 | CC(C)(S)C(N)C(=O)O (single isomer, unassigned; (+)) [(+)-Penicillamine] |  | 108%
29 | COc1cc(OC)c2c(C)cc(=O)oc2c1 [5,7-Dimethoxy-4-methylcoumarin] |  | 119%
30 | CC(=O)OC[C@H]1O[C@@H]([S-])[C@H](OC(C)=O)[C@@H](OC(C)=O)[C@@H]1OC(C)=O.CCP(CC)CC.[Au+] [Auranofin] | 5.12 ± 2% | 
31 | c1ccc(-c2ccc(C(c3ccccc3)n3ccnc3)cc2)cc1 (centres undefined) | 106 ± 5.3% | 
32 | c1ccc(-c2ccc(C(c3ccccc3)n3ccnc3)cc2)cc1 (centres undefined) [Bifonazole] | 103 ± 2.5% | 
33 | Oc1c(Cl)cc(Cl)c2cccnc12 | 98.2% | 
34 | Oc1c(Cl)cc(Cl)c2cccnc12 [Chloroxine] | 104% | 
35 | O=C1CC[C@@H](C(=O)N2CSC[C@H]2C(=O)O)N1 | 101% | 
36 | COc1ccccc1N1CCN(CCCNc2c(C)c(=O)n(C)c(=O)n2C)CC1 [Urapidil, 5-Methyl-] | 122% | 
37 | NC[C@@H]1O[C@H](O[C@H]2[C@@H](O)[C@H](O[C@@H]3[C@@H](O)[C@H](N)C[C@H](N)[C@H]3O[C@H]3O[C@H](CO)[C@@H](O)C[C@H]3N)O[C@@H]2CO)[C@H](N)[C@@H](O)[C@@H]1O[C@H]1O[C@H](CO)[C@@H](O)[C@H](O)[C@@H]1O [Lividomycin A sulfate salt] |  | 94.9%
38 | CN(C)CCC(c1ccc(Br)cc1)c1ccccn1 (centres undefined) [Brompheniramine maleate] | 131% | 
39 | CN(C)CCC(c1ccc(Br)cc1)c1ccccn1 (centres undefined) | 108% | 
40 | C[C@]12CCC(=O)C=C1CC[C@@H]1[C@@H]2CC[C@@]2(C)[C@H]1CC[C@]2(O)C(=O)CO [Cortexolone] | 105% | 
41 | COC(=O)C1=C(C)NC(C)=C(C(=O)OC(C)(C)CN(C)CCC(c2ccccc2)c2ccccc2)C1c1cccc([N+](=O)[O-])c1 (centres undefined) [Lercanidipine hydrochloride hemihydrate] | 104% | 
42 | O=C(O)/C=C/C(O)c1ccc(Cl)cc1 (centres undefined) | 113% | 
43 | CC(C)NCC(O)COc1ccc(CC(N)=O)cc1 (centres undefined) [Atenolol] | 106% | 
44 | CC(C)NCC(O)COc1ccc(CC(N)=O)cc1 (centres undefined) | 113% | 

Some of the entries so far, in CSV form:
Row,SMILES,cell viability (compound concentration: 3 uM),cell viability [1]
25,CCC1(c2ccccc2)C(=O)NCNC1=O,107%,
26,CCC1(c2ccccc2)C(=O)NCNC1=O [Primidone],107 ± 1.5%,
28,"CC(C)(S)C(N)C(=O)O (single isomer, unassigned; (+)) [(+)-Penicillamine]",,108%
29,"COc1cc(OC)c2c(C)cc(=O)oc2c1 [5,7-Dimethoxy-4-methylcoumarin]",,119%
30,CC(=O)OC[C@H]1O[C@@H]([S-])[C@H](OC(C)=O)[C@@H](OC(C)=O)[C@@H]1OC(C)=O.CCP(CC)CC.[Au+] [Auranofin],5.12 ± 2%,
31,c1ccc(-c2ccc(C(c3ccccc3)n3ccnc3)cc2)cc1 (centres undefined),106 ± 5.3%,
32,c1ccc(-c2ccc(C(c3ccccc3)n3ccnc3)cc2)cc1 (centres undefined) [Bifonazole],103 ± 2.5%,
35,O=C1CC[C@@H](C(=O)N2CSC[C@H]2C(=O)O)N1,101%,
40,C[C@]12CCC(=O)C=C1CC[C@@H]1[C@@H]2CC[C@@]2(C)[C@H]1CC[C@]2(O)C(=O)CO [Cortexolone],105%,
42,O=C(O)/C=C/C(O)c1ccc(Cl)cc1 (centres undefined),113%,
43,CC(C)NCC(O)COc1ccc(CC(N)=O)cc1 (centres undefined) [Atenolol],106%,
